These results are taken from patent publication US20110039770A1, “INHIBITORS OF PROTEIN KINASE C ISOFORMS AND USES THEREOF” (PHARMAGAP INC., priority 2005, published 2011).

This data set concerns IMR-32 neuroblastoma cells. In kind it is cell-based, human.
Setting [1] is: 2.5 mg/ml, 24 h, pinocytic endocytosis reagent.
Where [2] appears, read: 2.5 mg/ml, 48 h, pinocytic endocytosis reagent.
Setting [3] is: 2.5 mg/ml, 72 h, pinocytic endocytosis reagent.
[4] abbreviates: 10 mg/ml, 24 h, pinocytic endocytosis reagent.
[5] abbreviates: 10 mg/ml, 48 h, pinocytic endocytosis reagent.
[6] abbreviates: 10 mg/ml, 72 h, pinocytic endocytosis reagent.

Where two headings read alike, the source gives them in different places. Where a SMILES comes first, the peptide text is derived from it.

`CC[C@H](C)[C@H](NC(=O)[C@H](CO)NC(=O)[C@@H](NC(=O)CNC(=O)[C@@H](NC(=O)[C@H](CC(C)C)NC(=O)[C@H](CC(N)=O)NC(=O)[C@H](CCC(N)=O)NC(=O)[C@H](C)NC(=O)[C@H](CC(=O)O)NC(=O)CNC(=O)CNC(=O)[C@H](CCCCN)NC(=O)[C@@H](NC(=O)[C@H](CCC(=O)O)NC(=O)[C@H](CCC(N)=O)NC(=O)[C@@H](NC(=O)CNC(=O)[C@H](CCCCN)NC(=O)[C@H](C)NC(C)=O)[C@@H](C)CC)C(C)C)[C@@H](C)CC)[C@@H](C)CC)C(N)=O` [PRE 3] (Ac-AKGIQEVKGGDAQNLIGISI-NH2): the “AFI (Average Fluorescence Intensity)” value came to 193 under setting [1]; 389 under setting [2]; 871 under setting [3]; 182 under setting [4]; 334 under setting [5]; 830 under setting [6].

As for `CC[C@H](C)[C@H](NC(=O)[C@H](CO)NC(=O)[C@@H](NC(=O)CNC(=O)[C@@H](NC(=O)[C@H](CC(C)C)NC(=O)[C@H](CC(N)=O)NC(=O)[C@H](CCC(N)=O)NC(=O)[C@H](C)NC(=O)[C@H](CC(=O)O)NC(=O)[C@H](CCCCN)NC(C)=O)[C@@H](C)CC)[C@@H](C)CC)C(N)=O` [PRE 4, Ac-KDAQNLIGISI-NH2] (Ac-KDAQNLIGISI-NH2), the “AFI (Average Fluorescence Intensity)” value under setting [1] is listed as 179; the “AFI (Average Fluorescence Intensity)” value under setting [2] is recorded as 240; the “AFI (Average Fluorescence Intensity)” value under setting [3] is given as 777; the “AFI (Average Fluorescence Intensity)” value under setting [4] came out at 173; the “AFI (Average Fluorescence Intensity)” value under setting [5] turned out to be 247; the “AFI (Average Fluorescence Intensity)” value under setting [6] came to 809.

On to `CC[C@H](C)[C@H](NC(=O)[C@H](CO)NC(=O)[C@@H](NC(=O)CNC(=O)[C@@H](NC(=O)[C@H](CC(C)C)NC(=O)[C@H](CC(N)=O)NC(=O)[C@H](CCC(N)=O)NC(=O)[C@H](C)NC(=O)[C@H](CC(=O)O)NC(=O)[C@H](CCCCN)NC(=O)CNC(=O)CNC(=O)[C@H](CCCCN)NC(=O)[C@@H](NC(=O)[C@H](CCC(=O)O)NC(=O)[C@H](CCC(N)=O)NC(=O)[C@@H](NC(=O)CNC(=O)[C@H](CCCCN)NC(=O)[C@H](C)NC(C)=O)[C@@H](C)CC)C(C)C)[C@@H](C)CC)[C@@H](C)CC)C(N)=O` [PRE 5] (Ac-AKGIQEVKGGKDAQNLIGISI-NH2), for which the “AFI (Average Fluorescence Intensity)” value (62.5 μg/ml, 24 h) is on record as 717; the “AFI (Average Fluorescence Intensity)” value (62.5 μg/ml, 48 h) is 1084; the “AFI (Average Fluorescence Intensity)” value (62.5 μg/ml, 72 h) stood at 1290; the “AFI (Average Fluorescence Intensity)” value (125 μg/ml, 24 h) is listed as 593; the “AFI (Average Fluorescence Intensity)” value (125 μg/ml, 48 h) is 991; the “AFI (Average Fluorescence Intensity)” value (125 μg/ml, 72 h) worked out at 1200. The “AFI (Average Fluorescence Intensity)” value reads like this: (250 μg/ml, 24 h) 557; (250 μg/ml, 48 h) 899; (250 μg/ml, 72 h) 1150; (500 μg/ml, 24 h) 492; (500 μg/ml, 48 h) 891; (500 μg/ml, 72 h) 1082.
